This is one part of the list. The main result of the screen is listed elsewhere. These columns were measured beside it and carry no call. Most of these compounds were active or inconclusive in the main read-out, so they are no random draw. Potencies come from curve fits of mixed quality, noted in brackets.
Assay: qHTS Assay for Modulators of Lamin A Splicing
Details: HeLa LMNA splicing GFP/RFP minigene ratio, 48 h
Method in brief: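 S3 HeLa stable clones carrying a lamin A-EGFP splicing minigene plus DsRed2 were seeded at 600 cells/well in Opti-MEM with 2% FBS, pin-dosed and incubated 48 h at 37°C. Acumen cytometry (488 nm) gave the GFP/RFP total-intensity ratio.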

[1] = measured here: GFP splicing reporter channel
[2] = measured here: RFP viability control channel

Compound | AC50 [1] | AC50 [2]
CCCn1c(SCC(=O)N2N=C3/C(=C/c4ccc(OC)cc4)CCCC3C2c2ccc(OC)cc2)n[nH]c1=O (stereo unspecified) | 14.1 µM [rising, single point] | 15.8 µM [rising, partial curve]
Cc1nc(NC(=O)CSc2nnc(N)s2)c(Cl)cc1Cl |  | 0.562 µM [rising, partial curve, poor fit]
CCOC(=O)C1=C(CSc2nncn2C)NC(=O)NC1c1cc(OCC)ccc1OCC (stereo unspecified) | 0.0794 µM [rising, full curve, poor fit] | 
Cc1ccc(-n2nnnc2SC(C)C(=O)Nc2ccc(Cl)cn2)cc1 (stereo unspecified) | 20 µM [rising, single point] | 
CCc1ccc(OCC(=O)N/N=C(\C)c2ccc(O)cc2O)cc1 |  | 25.1 µM [rising, partial curve]
COc1ccc(-c2cnnn2-c2ccc(NC(=O)c3ccc(S(=O)(=O)N4CCCCC4)cc3)cc2)cc1 |  | 10 µM [rising, partial curve]
COC(=O)c1ccc(-c2nc3ccccc3[nH]2)cc1 |  | 0.00447 µM [falling, full curve, poor fit]
Cn1c(SCC(=O)c2c(N)n(C)c(=O)n(C)c2=O)nnc1-c1ccc(F)cc1 |  | 0.112 µM [rising, full curve, poor fit]
COc1ccc(/C=C2/C(=O)ON=C2c2ccccc2)cc1OC | 7.94 µM [falling, single point] | 12.6 µM [falling, single point]
CC(=O)c1cccc(NC(=S)NC(=O)c2cccc(C)c2)c1 | 11.2 µM [rising, partial curve] | 28.2 µM [rising, partial curve]
Cc1cc(S(=O)(=O)C(CNC(=O)COc2ccc(Cl)cc2)c2cccs2)ccc1F (stereo unspecified) |  | 35.5 µM [rising, single point]
COc1ccc(OC)c(CCNC(=O)C2CCN(c3nnc(-n4cccc4)s3)CC2)c1 |  | 7.94 µM [rising, partial curve]
CC1C(c2ccccc2)N(C)C(c2ccccc2)CC1(O)c1ccccc1 (stereo unspecified) |  | 2.82 µM [falling, partial curve, poor fit]
CSc1nc2nc3c(cc2c(=O)[nH]1)C(O)Oc1ccc(C)cc1-3 (stereo unspecified) | 10 µM [rising, single point] | 
Cc1ccccc1N=C/C=C1/C=C(c2ccccc2)OC(C)(C)O1 |  | 14.1 µM [rising, single point]
CCOC(=O)C1=CN(C)C=C(C(=O)OCC)C1c1ccsc1 | 31.6 µM [rising, single point] | 
O=C(NC(c1ccccc1)C(Cl)(Cl)Cl)c1ccccc1 (stereo unspecified) | 17.8 µM [rising, partial curve, poor fit] | 20 µM [rising, single point]
O=C(CNc1ccccc1)N/N=C/c1ccc([N+](=O)[O-])o1 |  | 35.5 µM [falling, single point]
Fc1ccc(CNc2nc(-c3ccccc3)nc3ccccc23)cc1 | 15.8 µM [falling, single point] | 22.4 µM [falling, single point]

Compound | AC50 [1] | AC50 [2]
O=C(COC(=O)C1CC1)NC(=O)NCc1ccccc1 |  | 5.01 µM [rising, full curve, poor fit]
CC(C)(C)OC(=O)N1CCC(c2c(C(=O)NCCN3CCC(Cc4ccccc4)CC3)cnn2-c2ccc(F)cc2)CC1 | 22.4 µM [falling, partial curve] | 31.6 µM [falling, partial curve]
Cc1cccc(N2CCN(S(=O)(=O)c3cc(C(=O)Nc4ccccc4Cl)ccc3F)CC2)c1C |  | 0.158 µM [rising, full curve, poor fit]
CCc1c(C)nc2cc(-c3ccc(OC)c(OC)c3)nn2c1NCC1CC1 |  | 14.1 µM [rising, single point]
O=C(CSc1nc(C2CC2)nc2ccccc12)N1CCc2ccccc2C1 | 8.91 µM [rising, partial curve] | 12.6 µM [rising, partial curve]
CNS(=O)(=O)c1ccc(NS(=O)(=O)c2ccccc2F)cc1 | 0.112 µM [rising, full curve, poor fit] | 
COc1ccc(C2=NN(C(=O)CSc3ncccn3)C(c3ccc(C)cc3)C2)cc1 (stereo unspecified) |  | 15.8 µM [rising, single point]
COc1cccc(Nc2nnc(SCc3cc([N+](=O)[O-])cc4c3OCOC4)s2)c1 |  | 7.08 µM [rising, partial curve]
COCCCNC(=O)c1ccc(NC(=O)c2nsc3ccccc23)cc1 | 0.316 µM [rising, single point] | 
CC1CCN(C(=S)c2ccc(-c3ccc(Cl)cc3Cl)o2)CC1 |  | 10 µM [rising, partial curve]
CS(=O)(=O)c1ccc(-c2nnc(NC(=O)c3ccc4c(c3)OCCO4)o2)cc1 | 35.5 µM [falling, single point] | 14.1 µM [falling, partial curve, poor fit]
CCOC(=O)CSC1=C(C#N)C(c2ccc(C)o2)CC(=O)N1 (stereo unspecified) |  | 0.794 µM [rising, full curve]
Oc1ccc(NC(=S)Nc2ccccc2)cc1 |  | 22.4 µM [rising, single point]
C/C(=N\NC(=O)c1ccc(CN2CCOCC2)cc1)c1cccc([N+](=O)[O-])c1 |  | 1.12 µM [rising, partial curve, poor fit]
CCOC(=O)CNC(=O)c1cc(-c2ccccn2)nc2c(C)c(Cl)ccc12 |  | 0.01 µM [rising, full curve, poor fit]
CCC1CN(C(=O)N2CCC(C(=O)NCCN(CC)CC)CC2)c2cc(C)ccc2O1 (stereo unspecified) |  | 8.91 µM [rising, partial curve]
CCOc1cc(CNC(=O)c2sc3ncnc(N(C)C4CCCCC4)c3c2C)ccc1OC | 35.5 µM [falling, single point] | 
Cc1cc(C(=O)N2CCc3ccccc32)c2ccccc2n1 | 22.4 µM [rising, partial curve, poor fit] | 14.1 µM [rising, partial curve, poor fit]

3 compounds from above, ordered by formula weight, high to low.
Compound | AC50 [1] | AC50 [2]
CC(C)(C)OC(=O)N1CCC(c2c(C(=O)NCCN3CCC(Cc4ccccc4)CC3)cnn2-c2ccc(F)cc2)CC1 | 22.4 µM [falling, partial curve] | 31.6 µM [falling, partial curve]
O=C(CSc1nc(C2CC2)nc2ccccc12)N1CCc2ccccc2C1 | 8.91 µM [rising, partial curve] | 12.6 µM [rising, partial curve]
O=C(COC(=O)C1CC1)NC(=O)NCc1ccccc1 |  | 5.01 µM [rising, full curve, poor fit]

From PubChem BioAssay AID1487 (National Center for Advancing Translational Sciences (NCATS), 2009)
